From PMC9751115
No constants are given. Whether binding was seen depends on the method and setting. In cells and extracts the contact can be indirect. Some results given as binding are weak or reduced against the parent protein; the word gives no strength.

Sequences of proteins named here, by UniProt entry; tags and fusion partners are left off. A change or cut given only in a name is not applied to a line headed by its entry. Residues count along the entry.
UniProt Q9BXM7, 78-581: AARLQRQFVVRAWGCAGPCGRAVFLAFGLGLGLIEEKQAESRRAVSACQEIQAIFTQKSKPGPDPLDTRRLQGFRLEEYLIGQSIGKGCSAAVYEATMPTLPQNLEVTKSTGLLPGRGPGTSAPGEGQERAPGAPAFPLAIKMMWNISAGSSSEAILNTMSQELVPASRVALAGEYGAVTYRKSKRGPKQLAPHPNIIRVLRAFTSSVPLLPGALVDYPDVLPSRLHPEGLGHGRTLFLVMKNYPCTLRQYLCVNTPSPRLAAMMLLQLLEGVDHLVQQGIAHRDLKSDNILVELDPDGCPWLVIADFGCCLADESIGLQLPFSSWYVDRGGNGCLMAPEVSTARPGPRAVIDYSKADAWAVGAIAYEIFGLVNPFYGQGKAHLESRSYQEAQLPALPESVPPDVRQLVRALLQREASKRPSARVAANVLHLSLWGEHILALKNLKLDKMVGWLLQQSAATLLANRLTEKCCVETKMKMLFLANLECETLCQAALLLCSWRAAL
UniProt P61586, whole entry, looked up, stated change not applied: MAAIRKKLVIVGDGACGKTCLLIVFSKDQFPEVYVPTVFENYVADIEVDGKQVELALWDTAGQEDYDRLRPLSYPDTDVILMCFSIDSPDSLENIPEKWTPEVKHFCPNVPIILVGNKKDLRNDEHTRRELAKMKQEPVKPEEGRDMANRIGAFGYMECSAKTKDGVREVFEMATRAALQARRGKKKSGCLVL

Key:
[1] = biological target: miniSOG-tagged PINK1 (msPINK1) (UniProt Q9BXM7); assay: co-IP; mitochondrial fractions of NRVMs expressing RhoA with msPINK1; HA or miniSOG immunoprecipitated; WB for HA and miniSOG
[2] = biological target: miniSOG-tagged PINK1 (msPINK1) (UniProt Q9BXM7); assay: co-IP; whole cell lysates of NRVMs co-expressing msPINK1 with GFP or HA-L63RhoA; 1 % digitonin buffer (20 mM Tris HCl pH 7.2, 50 mM KCl, 1 mM MgCl2); HA or miniSOG antibody on Dynabeads, 4 °C overnight; WB for HA and miniSOG
[3] = biological target: hemagglutinin (HA)-tagged active mutant of RhoA (L63RhoA), expressed in neonatal rat ventricular myocytes (UniProt P61586); assay: co-IP; mitochondrial fractions of NRVMs expressing RhoA with msPINK1; HA or miniSOG immunoprecipitated; WB for HA and miniSOG
[4] = biological target: hemagglutinin (HA)-tagged active mutant of RhoA (L63RhoA), expressed in neonatal rat ventricular myocytes (UniProt P61586); assay: co-IP; whole cell lysates of NRVMs co-expressing msPINK1 with GFP or HA-L63RhoA; 1 % digitonin buffer (20 mM Tris HCl pH 7.2, 50 mM KCl, 1 mM MgCl2); HA or miniSOG antibody on Dynabeads, 4 °C overnight; WB for HA and miniSOG

| Substance | binding [1] | binding [2] | binding [3] | binding [4] |
| --- | --- | --- | --- | --- |
| hemagglutinin (HA)-tagged active mutant of RhoA (L63RhoA), expressed in neonatal rat ventricular myocytes (from UniProt P61586 1-193) | binds | binds | – | – |
| miniSOG-tagged PINK1 (msPINK1) (from UniProt Q9BXM7 78-581) | – | – | binds | binds |
